Experimental data published in article PMC4554727, “Flexible Structure of Peptide-Bound Filamin A Mechanosensor Domain Pair 20–21” (PLoS ONE, 2015).
Results are given in words; binding and its absence hold for the method and conditions named.

Protein sequences, listed by entry. Tags and fused reporters are not part of them. Lines headed by an entry give the natural chain unless they say otherwise; changes in a name come on top. Residues count along the entry.
IgFLNa20–21 (filamin A immunoglobulin-like domains 20–21, residues 2141–2329) (P21333, residues 2141-2329): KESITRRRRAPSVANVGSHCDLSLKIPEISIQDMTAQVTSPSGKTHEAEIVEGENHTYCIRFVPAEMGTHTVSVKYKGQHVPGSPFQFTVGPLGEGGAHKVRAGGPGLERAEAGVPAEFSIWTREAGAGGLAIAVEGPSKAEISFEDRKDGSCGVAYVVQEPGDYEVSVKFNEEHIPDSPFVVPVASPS
IgFLNaΔA20–21 (filamin A domains 20–21 lacking the first β strand of domain 20, residues 2151–2329) (P21333, residues 2151-2329): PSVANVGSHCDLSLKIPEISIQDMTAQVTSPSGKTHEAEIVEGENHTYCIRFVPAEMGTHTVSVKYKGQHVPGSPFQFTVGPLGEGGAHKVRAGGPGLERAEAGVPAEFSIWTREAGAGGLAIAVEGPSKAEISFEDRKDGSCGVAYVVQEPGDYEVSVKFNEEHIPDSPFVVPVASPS

Tests used:
[1] = target: IgFLNaΔA20–21 (filamin A domains 20–21 lacking the first β strand of domain 20, residues 2151–2329) (UniProt P21333); assay: crystal structure; hanging drop vapor diffusion at 295 K, equimolar (1 mM) protein-peptide mixture; 0.1 M MES pH 6, 1.9 M (NH4)2SO4, 0.1 M (CH3CO2)3Pr; 2.0 Å; both purified
[2] = target: IgFLNaΔA20–21 (filamin A domains 20–21 lacking the first β strand of domain 20, residues 2151–2329) (UniProt P21333); assay: NMR diffusion (radius of hydration); 30°C; free and migfilin-bound IgFLNaΔA20–21; radii of hydration compared with those predicted for a monomer and a dimer; both purified
[3] = target: IgFLNaΔA20–21 (filamin A domains 20–21 lacking the first β strand of domain 20, residues 2151–2329) (UniProt P21333); assay: SAXS; 277 K; 20 mM Tris pH 8.0, 100 mM NaCl, 10 mM DTT; 1–4 mg/ml IgFLNa20–21 or IgFLNa∆A20–21; two times molar excess of migfilin peptide where added; both purified
[4] = target: IgFLNa20–21 (filamin A immunoglobulin-like domains 20–21, residues 2141–2329) (UniProt P21333); assay: as above

Row | Substance | binding [1] | binding [2] | binding [3] | binding [4]
1 | IgFLNaΔA20–21 (filamin A domains 20–21 lacking the first β strand of domain 20, residues 2151–2329) (from UniProt P21333 2151-2329) (domain or fragment) | no binding | no binding | no binding (tested: 1–4 mg/ml) | –
2 | IgFLNa20–21 (filamin A immunoglobulin-like domains 20–21, residues 2141–2329) (from UniProt P21333 2141-2329) (domain or fragment) | – | – | – | no binding (tested: 1–4 mg/ml)
